Counter-ions that a name gives are not always drawn. This is one part of the list. Repeats in this data set agree poorly, so a single value says little.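 Human fetal ventral-midbrain neural progenitor line ReNCell VM, differentiated without mitogens. Images stained for doublecortin (early neurons) or tyrosine hydroxylase (dopaminergic neurons) were scored by blinded raters against untreated wells (0 = no change). Repeats and both raters were averaged, and compounds averaging 2 or higher were picked as hits for retesting.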
Assays:
ReNCell VM [1] = experiment: neuronal differentiation score (DCX+ cell fraction vs untreated, manual image score) (score (-3 to 3)); higher = more neuronal differentiation; details: 2 uM, 2 weeks
ReNCell VM [2] = experiment: dopaminergic neuron differentiation score (TH+ cell fraction vs untreated, manual image score) (score (0 to 3)); higher = more TH+ dopaminergic neuron differentiation; details: 2 uM, 4 weeks, BDNF 10 ng/ml + GDNF 10 ng/ml

`c1ccc(CC2=NCCN2)cc1` was tested. Which neuronal differentiation score (ReNCell VM [1]; library: Spectrum) did it give?
The neuronal differentiation score was inactive: 1.

What about the “dopaminergic neuron differentiation score” value (ReNCell VM [2]; library: Spectrum) of the same molecule?
The value was inactive: 0.

`COc1ccc(/C=C/C(=O)c2cc(O)ccc2O)cc1` was tested. Which neuronal differentiation score (ReNCell VM [1]; library: Spectrum) did it give?
The neuronal differentiation score was inactive: 0.

And the “dopaminergic neuron differentiation score” value (ReNCell VM [2]; library: Spectrum)?
Its value is inactive: 0.

Which neuronal differentiation score (ReNCell VM [1]; library: Spectrum) does the source give for `Nc1ccc(S(=O)(=O)Nc2ccc(Cl)nn2)cc1` here?
Its neuronal differentiation score is inactive: 0.

And the “dopaminergic neuron differentiation score” value (ReNCell VM [2]; library: Spectrum)?
Its value is inactive: 0.

Which neuronal differentiation score (ReNCell VM [1]; library: Spectrum) does the source give for `CC[N+](C)(C)c1cccc(O)c1` here?
Its neuronal differentiation score is inactive: 0.

What about the “dopaminergic neuron differentiation score” value (ReNCell VM [2]; library: Spectrum) of the same molecule?
The value was inactive: 0.

What does the source list for `O=C(CCNNC(=O)c1ccncc1)NCc1ccccc1`?
neuronal differentiation score (ReNCell VM [1]; library: Spectrum): inactive: 0; dopaminergic neuron differentiation score (ReNCell VM [2]; library: Spectrum): inactive: 0

`CC(C)=CCC/C(C)=C/CC/C(C)=C/CC/C(C)=C/CC/C(C)=C/CC1=C(C)C(=O)c2ccccc2C1=O` [Menaquinone] was tested. Which neuronal differentiation score (ReNCell VM [1]; library: Phytochemical) did it give?
Its neuronal differentiation score is inactive: 0.

What about the “dopaminergic neuron differentiation score” value (ReNCell VM [2]; library: Phytochemical) of the same molecule?
The value was inactive: 0.

`CCN(CC)CCOC(=O)C(c1ccccc1)c1ccccc1` was tested. Which neuronal differentiation score (ReNCell VM [1]; library: Spectrum) did it give?
Its neuronal differentiation score is inactive: 0.

And the “dopaminergic neuron differentiation score” value (ReNCell VM [2]; library: Spectrum)?
Its value is inactive: 0.

For `CCN(CC)CCCCNc1ncc2cc(-c3c(Cl)cccc3Cl)c(NC(=O)NC(C)(C)C)nc2n1`, which neuronal differentiation score (ReNCell VM [1]; library: Tocriscreen) is on record?
Its neuronal differentiation score is inactive: 0.

What about the “dopaminergic neuron differentiation score” value (ReNCell VM [2]; library: Tocriscreen) of the same molecule?
The value was inactive: 0.

For `CN(C)CCCC1(c2ccc(F)cc2)OCc2cc(C#N)ccc21` (configuration not stated) [Citalopram Hydrobromide], which neuronal differentiation score (ReNCell VM [1]; library: Prestwick) is on record?
Its neuronal differentiation score is inactive: 0.

What about the “dopaminergic neuron differentiation score” value (ReNCell VM [2]; library: Prestwick) of the same molecule?
The value was inactive: 0.

For `Cc1nc(N=Nc2cc(S(=O)(=O)O)c3cc([N+](=O)[O-])cc(S(=O)(=O)O)c3c2)c(COP(=O)(O)O)c(C=O)c1O` [PPNDS tetrasodium], which neuronal differentiation score (ReNCell VM [1]; library: LOPAC) is on record?
Its neuronal differentiation score is inactive: 0.

What about the “dopaminergic neuron differentiation score” value (ReNCell VM [2]; library: LOPAC) of the same molecule?
Its value is inactive: 0.

With `N[C@@H](COP(=O)(O)O)C(=O)O` [O-Phospho-L-serine] as the molecule, how does the neuronal differentiation score (ReNCell VM [1]; library: LOPAC) read?
Its neuronal differentiation score is inactive: 0.

And the “dopaminergic neuron differentiation score” value (ReNCell VM [2]; library: LOPAC)?
The value was inactive: 0.

With `O=c1[nH]c(=O)n([C@H]2C[C@H](O)[C@@H](CO)O2)cc1C(F)(F)F` [Trifluridine] as the molecule, how does the neuronal differentiation score (ReNCell VM [1]; library: Prestwick) read?
The neuronal differentiation score was inactive: 0.

And the “dopaminergic neuron differentiation score” value (ReNCell VM [2]; library: Prestwick)?
The value was inactive: 0.

Which results are given for `Cc1cc(=O)oc2cc(O)c(O)cc12`?
neuronal differentiation score (ReNCell VM [1]; library: Spectrum): inactive: 0; dopaminergic neuron differentiation score (ReNCell VM [2]; library: Spectrum): inactive: 0

How did the neuronal differentiation score (ReNCell VM [1]; library: LOPAC) turn out when `O=C(c1ccccc1)c1ccc2n1CCC2C(=O)O` (configuration not stated) [Ketorolac tris salt] was run?
The neuronal differentiation score was inactive: 0.

And the “dopaminergic neuron differentiation score” value (ReNCell VM [2]; library: LOPAC)?
The value was inactive: 0.

Which results are given for `CC(=O)OC(C)C[N+](C)(C)C` (configuration not stated) [Methacholine chloride]?
neuronal differentiation score (ReNCell VM [1]; library: Prestwick): inactive: 0; dopaminergic neuron differentiation score (ReNCell VM [2]; library: Prestwick): inactive: 0

With `CC(C)C1=CC2=CC[C@@H]3[C@](C)(CCC[C@@]3(C)C(=O)O)[C@H]2CC1` as the molecule, how does the neuronal differentiation score (ReNCell VM [1]; library: Spectrum) read?
Its neuronal differentiation score is inactive: 0.

And the “dopaminergic neuron differentiation score” value (ReNCell VM [2]; library: Spectrum)?
Its value is inactive: 0.

Which neuronal differentiation score (ReNCell VM [1]; library: Spectrum) does the source give for `COC(=O)c1c(OC)cc2c(c1C)Oc1c(Cl)c(O)c(Cl)c(C)c1C(=O)O2` here?
The neuronal differentiation score was inactive: 0.

What about the “dopaminergic neuron differentiation score” value (ReNCell VM [2]; library: Spectrum) of the same molecule?
Its value is inactive: 0.

For `C[C@H](CCC(=O)O)[C@H]1CC[C@H]2[C@@H]3CC[C@@H]4C[C@H](O)CC[C@]4(C)[C@H]3C[C@H](O)[C@]12C`, which neuronal differentiation score (ReNCell VM [1]; library: Spectrum) is on record?
Its neuronal differentiation score is inactive: 0.

What about the “dopaminergic neuron differentiation score” value (ReNCell VM [2]; library: Spectrum) of the same molecule?
The value was inactive: 0.

`NCc1ccc(S(N)(=O)=O)cc1` was tested. Which neuronal differentiation score (ReNCell VM [1]; library: Spectrum) did it give?
The neuronal differentiation score was inactive: 0.

And the “dopaminergic neuron differentiation score” value (ReNCell VM [2]; library: Spectrum)?
Its value is inactive: 0.

Which results are given for `Clc1cccc(Nc2nnc(-c3ccccc3)c3ccccc23)c1`?
neuronal differentiation score (ReNCell VM [1]; library: Tocriscreen): inactive: 0; dopaminergic neuron differentiation score (ReNCell VM [2]; library: Tocriscreen): inactive: 0

How did the neuronal differentiation score (ReNCell VM [1]; library: Natural) turn out when `CO[C@@]12[C@H](COC(N)=O)C3=C(C(=O)C(C)=C(N)C3=O)N1C[C@@H]1N[C@@H]12` [mitomycin C] was run?
Its neuronal differentiation score is inactive: 0.

What about the “dopaminergic neuron differentiation score” value (ReNCell VM [2]; library: Natural) of the same molecule?
Its value is inactive: 0.

How did the neuronal differentiation score (ReNCell VM [1]; library: Spectrum) turn out when `NC(=O)C1(N2CCCCC2)CCN(CCCC(=O)c2ccc(F)cc2)CC1` was run?
The neuronal differentiation score was inactive: 0.

What about the “dopaminergic neuron differentiation score” value (ReNCell VM [2]; library: Spectrum) of the same molecule?
The value was inactive: 0.

With `O=C(NCc1ccccc1)OCCO` as the molecule, how does the neuronal differentiation score (ReNCell VM [1]; library: Spectrum) read?
Its neuronal differentiation score is inactive: 0.

And the “dopaminergic neuron differentiation score” value (ReNCell VM [2]; library: Spectrum)?
The value was inactive: 0.

For `O=C(O)CCCC[C@@H]1CCSS1`, which neuronal differentiation score (ReNCell VM [1]; library: Spectrum) is on record?
Its neuronal differentiation score is inactive: 0.

And the “dopaminergic neuron differentiation score” value (ReNCell VM [2]; library: Spectrum)?
The value was inactive: 0.

`C/C(=C\COc1cc(=O)[nH]c2ccccc12)CCC(O)C(C)(C)O` (configuration not stated) [bucharaine] was tested. Which neuronal differentiation score (ReNCell VM [1]; library: Natural) did it give?
The neuronal differentiation score was inactive: 0.

What about the “dopaminergic neuron differentiation score” value (ReNCell VM [2]; library: Natural) of the same molecule?
The value was inactive: 0.

What does the source list for `CN1C(C(=O)Nc2ccccn2)=C(O)c2sccc2S1(=O)=O`?
neuronal differentiation score (ReNCell VM [1]; library: Spectrum): inactive: 0; dopaminergic neuron differentiation score (ReNCell VM [2]; library: Spectrum): inactive: 0

With `O=C(O)c1nc2cc(Cl)c(Cl)cc2nc1O` as the molecule, how does the neuronal differentiation score (ReNCell VM [1]; library: Spectrum) read?
The neuronal differentiation score was inactive: 0.

What about the “dopaminergic neuron differentiation score” value (ReNCell VM [2]; library: Spectrum) of the same molecule?
Its value is inactive: 0.

Which neuronal differentiation score (ReNCell VM [1]; library: LOPAC) does the source give for `O=S(=O)(c1cccc2cnccc12)N1CCNCC1` here?
The neuronal differentiation score was inactive: -1.

What about the “dopaminergic neuron differentiation score” value (ReNCell VM [2]; library: LOPAC) of the same molecule?
Its value is inactive: 0.

How did the neuronal differentiation score (ReNCell VM [1]; library: Spectrum) turn out when `Cc1cc(-c2ccccc2)nnc1NCCN1CCOCC1` was run?
The neuronal differentiation score was inactive: 0.

And the “dopaminergic neuron differentiation score” value (ReNCell VM [2]; library: Spectrum)?
Its value is inactive: 0.

Which results are given for `COc1ccc2c(c1OC)C(=O)N1c3ccccc3C(=O)OC21` (configuration not stated)?
neuronal differentiation score (ReNCell VM [1]; library: Natural): inactive: 0; dopaminergic neuron differentiation score (ReNCell VM [2]; library: Natural): inactive: 0

Which results are given for `O=[N+]([O-])c1ccccc1S(=O)(=O)NCC1CCC(CNCC2CCc3ccccc3C2)CC1` (configuration not stated) [NTNCB hydrochloride]?
neuronal differentiation score (ReNCell VM [1]; library: Tocriscreen): inactive: 0; dopaminergic neuron differentiation score (ReNCell VM [2]; library: Tocriscreen): inactive: 0

`C[C@@H](NCc1cc(Br)cc2[nH]c(=O)c(=O)[nH]c12)P(=O)(O)O` was tested. Which neuronal differentiation score (ReNCell VM [1]; library: Tocriscreen) did it give?
The neuronal differentiation score was inactive: 0.

And the “dopaminergic neuron differentiation score” value (ReNCell VM [2]; library: Tocriscreen)?
Its value is inactive: 0.

`Nc1ccc(-c2ccc3ccccc3n2)cc1` [BF-170 hydrochloride] was tested. Which neuronal differentiation score (ReNCell VM [1]; library: LOPAC) did it give?
Its neuronal differentiation score is inactive: -3.

What about the “dopaminergic neuron differentiation score” value (ReNCell VM [2]; library: LOPAC) of the same molecule?
The value was inactive: 0.

Which neuronal differentiation score (ReNCell VM [1]; library: Spectrum) does the source give for `CC(=O)CCCCn1c(=O)c2c(ncn2C)n(C)c1=O` here?
The neuronal differentiation score was inactive: 0.

And the “dopaminergic neuron differentiation score” value (ReNCell VM [2]; library: Spectrum)?
Its value is inactive: 0.

How did the neuronal differentiation score (ReNCell VM [1]; library: Tocriscreen) turn out when `CCc1ccc2c(-c3cccc(Cl)c3)nc(=O)n(CC)c2n1` was run?
Its neuronal differentiation score is inactive: 0.

What about the “dopaminergic neuron differentiation score” value (ReNCell VM [2]; library: Tocriscreen) of the same molecule?
The value was inactive: 0.

For `COc1ccc(C=C2NC(=O)C3Cc4ccccc4CN3C2=O)cc1` (configuration not stated), which neuronal differentiation score (ReNCell VM [1]; library: Natural) is on record?
Its neuronal differentiation score is inactive: 0.

And the “dopaminergic neuron differentiation score” value (ReNCell VM [2]; library: Natural)?
The value was inactive: 0.

Source: the supplement of paper PMC4635364
